Among the data in article PMC10111675 are binding values, retold here.

Sequences of proteins named here, by UniProt entry; tags and fusion partners are left off.
UniProt Q9JMB7: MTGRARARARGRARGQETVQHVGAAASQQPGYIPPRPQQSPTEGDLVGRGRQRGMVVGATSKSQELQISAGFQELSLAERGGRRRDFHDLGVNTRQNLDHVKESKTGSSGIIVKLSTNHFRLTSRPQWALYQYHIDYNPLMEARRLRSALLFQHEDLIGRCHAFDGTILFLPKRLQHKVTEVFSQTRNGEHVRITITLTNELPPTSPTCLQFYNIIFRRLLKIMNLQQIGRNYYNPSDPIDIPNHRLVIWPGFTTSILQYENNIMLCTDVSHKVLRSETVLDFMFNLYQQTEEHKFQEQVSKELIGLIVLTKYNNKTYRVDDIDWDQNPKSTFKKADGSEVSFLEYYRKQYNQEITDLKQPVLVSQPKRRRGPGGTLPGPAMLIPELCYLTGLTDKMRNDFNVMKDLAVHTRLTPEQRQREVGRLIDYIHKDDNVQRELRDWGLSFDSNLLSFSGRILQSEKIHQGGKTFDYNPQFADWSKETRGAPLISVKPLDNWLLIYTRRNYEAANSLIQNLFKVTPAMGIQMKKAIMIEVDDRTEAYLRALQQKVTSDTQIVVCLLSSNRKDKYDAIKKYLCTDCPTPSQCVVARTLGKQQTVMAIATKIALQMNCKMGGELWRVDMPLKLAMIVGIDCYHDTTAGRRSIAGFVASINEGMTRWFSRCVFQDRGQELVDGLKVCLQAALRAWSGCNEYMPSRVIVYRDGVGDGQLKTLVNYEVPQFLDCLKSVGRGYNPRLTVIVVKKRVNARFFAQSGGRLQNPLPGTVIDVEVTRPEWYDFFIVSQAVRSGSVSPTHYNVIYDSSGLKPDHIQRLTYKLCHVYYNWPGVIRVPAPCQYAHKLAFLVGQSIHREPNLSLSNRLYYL

In this test the target is T1, HA-tagged Ck137956 truncation: middle part of the C-terminal region (298–447 aa) (mouse) (UniProt B1AYM9).
T1 sequence: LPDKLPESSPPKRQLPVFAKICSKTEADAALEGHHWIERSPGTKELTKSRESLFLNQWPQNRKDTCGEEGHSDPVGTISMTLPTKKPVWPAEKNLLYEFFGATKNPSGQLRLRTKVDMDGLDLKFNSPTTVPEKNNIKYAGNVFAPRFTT
Kind of test: co-IP; HA-tagged Ck137956 (or truncations) and Flag-tagged Miwi (or truncations) co-transfected in HEK-293 T cells, 48 h; lysates with anti-HA Magnetic Beads or anti-DYKDDDDK Resin 12 h at 4 °C; reciprocal; immunoblot. (In general: Immunoblotting shows a protein as a band on a membrane.)

No constants are given. Whether binding was seen depends on the method and setting. In cells and extracts the contact can be indirect. Some results given as binding are weak or reduced against the parent protein; the word gives no strength. Where a sequence is shown, tags or fusion partners need not be part of it.

For the substance “Flag-tagged Miwi (from UniProt Q9JMB7 1-862)”, the binding result was “binds”.
